Data published in patent US20050069542A1 (Human Genome Sciences, published 2005).
Results are given in words; binding and its absence hold for the method and conditions named. Some binding calls cover weakened binding; strength is not graded here.

Amino acid sequences for entries named in this document (tags omitted). A change or cut given only in a name is not applied to a line headed by its entry.
UniProt Q9HD89: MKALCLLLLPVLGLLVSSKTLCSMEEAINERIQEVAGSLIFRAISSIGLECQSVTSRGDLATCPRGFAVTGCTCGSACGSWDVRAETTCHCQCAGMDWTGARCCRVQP

Key:
[1] = target: Flag-tagged recombinant human GMAD (human) (UniProt Q9HD89); experiment: phage ELISA
[2] = target: Flag-tagged recombinant human GMAD (human) (UniProt Q9HD89); experiment: phage display selection of scFvs

Binder | binding [1] | binding [2]
GMBC638 (scFv) scFv: QVQLVQSGGGLVKPGESLRLSCEASGFEFNYAWMSWVRQAPGKGLEWVGRSRSVASGGTTDYAAPLQDRFTISRDDSKNTLYLQVNSLKIEDTGVYFCKWEKSEYYGMDVWGRGTMVTVSSGGGGSGGGGSGGGGSQSVLTQPASVSGSPGQSITISCTGTSSDVGGYNYVSWYQQHPGKAPKLMIYEGSKRPSGVSNRFSGSKSGNTASLTISGLQAEDEADYYCSSYTTRSTRVFGGGTKLTVLG | binds | binds
GMBC626 (scFv) scFv: EVQLVQSGGGLVKPGESLRLSCEASGFEFNYAWMSWVRQAPGKGLEWVGRSRSEASGGTTDYAAPLQDRFTISRDDSKNTLYLQVNSLKIEDTGVYFCKWEKSEYYGMDVWGRGTPVTVSSGGGGSGGGGSGGGGSQSVLTQPASVSGSPGQSITISCTGTSSDVGGYNYVSWYQQHPGKAPKLMIYEGSKRPSGVSNRFSGSKSGNTASLTISGLRAEDEADYYCSSYTTKSTQVFGGGTKLTVLG | binds | binds
GMBC659 (scFv) scFv: QVQLVESGGGLVKPGESLRLSCEASGFEFNYAWMSWVRQAPGKGLEWVGRSRSEASGGTTDYAAPLQDRFTISRDDSKNTLYLQVNSLKIEDTGVYFCKWEKSEYYGMDVWGRGTLVTVSSGGGGSGGGGSGGGGSQSVLTQPASVSGSPGQSITISCTGTSSDVGGYNYVSWYQQHPGKAPKLMIYEGSKRPSGVSNRFSGSKSGNTASLTISGLQAEDEADYYCSSYTTRSTRVFGGGTKLTVLG | binds | binds
GMBC627 (scFv) scFv: GVQLVQSGGEVKKPGASVRVSCKASRYIFSNYGFSWVRQAPGQGLEWMGSIRNDKGSTNYAQGFQDRLTMTTDTSTNTVFMELRSLSSDDTAVYYCASAPYYYGMGIWGKGTLVTVSSGGGGSGGGGSGGGGSQSVLTQPASVSGSSGQSITISCTGTSSDVGGYNYVSWYQQHPGKAPKLMIYEVGNRPSGVSNRFSGSKSGNTASLTISGLQAEDEADYYCSSYTTRSTRVFGGGTKLTVLG | binds | binds
GMBC628 (scFv) scFv: QVQLQQSGAEVKKPGASVRVSCKASGYTFTSYGFSWVRQAPGQRLEWMGWISAYKGNANYAEKFQGRVTMTTDTSTNTAYMELRSLRSDDTAVYYCARTRISVAGLDYYYYGLDVWGRGTLVTVSSGGGGSGGGGSGGGGSSELTQDPAVSVALGQTVRITCQGDSLRSYYTNWFQQKPGQAPLLVVYAKNNRPSGIPDRFSGSSSGNTASLTITGAQAEDEADYYCNSRDSSGNHVVFGGGTKLTVLG | binds | binds
GMBC629 (scFv) scFv: QVQLVESGGGLVKPGGSLRLSCAGSGFKFSDAWMNWVRQAPGKGLEWVGRIKSKGSGGTIEYAVPVKDRFIISRDDSKDTLYLQMNSLKTEDTALYYCTWDWDFYYGMNVWGQGTLVTVSSGGGGSGGGGSGGGGSSELTQDPAVSVALGQTVRITCQGDSLRSYYTNWFQQKPGQAPLLVVYAKNKRPSGIPDRFSGSSSGNTASLTITGAQAEDEADYYCHSRDSSGNHVLFGGGTKLTVLG | binds | binds
GMBC685 (scFv) scFv: QVQLVESGGVVVQPGGSLRLSCAASGFTFSDAWMNWVRQAPGKGLEWVGRIKSKGSGGTIDYAAPVKDRFTISRDDSKNTLYLQMNSLKTEDTALYYCTWDWDFYYGMNVWGKGTMVTVSSGGGGSGGGGSGGGGSSELTQDPAVSVALGQTVRITCQGDSLRSYYTNWFQQKPGQAPLLVVYAKNKRPSGIPDRFSGSSSGNTASLTITGAQAEDEADYYCHSRDSSGNHVLFGGGTKLTVLG | binds | binds
GMBC729 (scFv) scFv: QVQLQESGGGLVKPGGSLRLSCAGSGFKFSDAWMNWVRQAPGKGLEWVGRIKSKGSGGTIEYAAPVKDRFIISRDDSKDTLYLQMDSLKTEDTALYYCTWDWDFYYGMNVWGQGTLVTVSSGGGGSGGGGSGGGGSSELTQDPAVSVALGQTVRITCQGDSLRNYYTNWFQQKPGQAPLLVVYAKNKRPSGIPDRFSGSSSGNTASLTITGAQAEDEADYYCHSRDSSGNHVLFGGGTKLTVLG | binds | binds
GMBC665 (scFv) scFv: EVQLVETGGGLVKPGGSLRLSCAASGFTFSDAWMNWVRQAPGKGLEWVGRIKSKGSGGTIDYAAPVKDRFTISRDDSKNTLYLQMNSLKTEDTALYYCTWDWDFYYGMNVWGQGTMVTVSSGGGGSGGGGSGGGGSSELTQDPAVSVALGQTVRITCQGDSLRSYYASWYQQKPGQAPVLVIYGKNNRPSGIPDRFSGSSSGNTASLTITGAQAEDEADYYCNSRDSSGNHVVFGGGTKLTVLG | binds | binds
GMBC632 (scFv) scFv: QVQLVQSGGGLVKPGGSLRLSCAGSGFKFSDAWMNWVRQAPGKGLEWVGRIKSKGSGGTIEYAAPVKDRFIISRDDSKDTLYLQMNSLKTEDTALYYCTWDWDFYYDMNVWGQGTMVTVSSGGGGSGGGGSGGGGSSELTQDPAVSVALGQTVRITCQGDSLRSYYASWYQQKPGQAPVLVIYGKNNRPSGIPDRFFGSSSGNTASLTITGAQAEDEADYYCNSRDSSGNHVVFGGGTKLTVLG | binds | binds
GMBC635 (scFv) scFv: EVQLVESGGGLVKPGGSLRLSCAASGFTFSDAWMNWVRQAPGKGLEWVGRIKSKGSGGTIDYAAPVKDRYTISRDDSKNTLYLQMNSLKTEDTALYYCTWDWDFYYGMNVWGKGTMVTVSSGGGGSGGGGSGGGGSSELTQDPAVSVALGQTVRITCQGDSLRSYYASWYQQKPGQAPVLVIYGKNNRPSGIPDRFSGSSSGNTASLTITGAQAEDEADYYCNSRDSSGNHVVFGGGTKLTVLG | binds | binds
GMBC648 (scFv) scFv: QVQLVESGGGLVKPGGSLRLSCAASGFTFSDAWMNWVRQAPGKGLEWVGRIKSKRSGGTIDYAAPVKDRFTISRDDSKNTLYLQMNSLKTEDTALYYCTWDWDFYYGMNVWGQGTMVTVSSGGGGSGGGGSGGGGSSELTQDPTVSVALGQTVRITCQGDSLRSYYASWYQQKPGQAPVLVIYGKNNRPSGIPDRFSGSSSGNTASLTITGAQAEDEADYYCNSRDSSGNHVVFGGGTKLTVLG | binds | binds
GMBC657 (scFv) scFv: QMQLMQSGGGLVKPGGSLRLSCAGSGFKFSDAWMNWVRQAPGKGLEWVGRIKSKGSGGTIEYAAPVKDRFIISRDDSKDTLYLQMNSLKTEDTALYYCTWDWDFYYGMNVWGQGTLVTVSSGGGGSGGGGSGGGGSSELTQDPAVSVALGQTVRITCQGDSLRSYYASWYQQKPGQAPVLVIYGKNNRPSGIPDRFSGSSSGNTASLTITGAQAEDEADYYCNSRDSSGNHVVFGGGTKLTVLG | binds | binds
GMBC668 (scFv) scFv: EVQLVESGGGLVKPGGSLRLSCAASGFTFSDAWMNWVRQAPGKGLEWVGRIKSKGSGGTTDYAAPVKGRFTISRDDSENTLYLQMNSLKTEDTAVYYCTWDHSYYYDMAVWGRGTLVTVSSGGGGSGGGGSGGGGSSELTQDPAVSVALGQTVRITCQGDSLRSYYASWYQQKPGQAPVLVIYGKNNRPSGIPDRFSGSSSGNTASLTITGAQAEDEADYYCNSRDSSGNHVVFGGGTKLTVLG | binds | binds
GMBC682 (scFv) scFv: QVQLVESGGGVVKPGGSLRLSCAASGFKFSDAWMNWVRQAPGKGLEWVGRIKSKGSGGTIDYAAPVKDRFTISRDDSKNTLYLQMNSLKTEDTALYYCTWDWDFYYGMNVWGRGTLVTVSSGGGGSGGGGSGGGGSSELTQDPAVSVALGQTVRITCQGDSLRSYYASWYQQKPGQAPVLVIYGKNNRPSGIPDRFSGSSSGNTASLTITGAQAEDEADYYCNSRDSSGNHVVFGGGTKLTVLG | binds | binds
GMBC639 (scFv) scFv: GVQLVQSGAEVKTPGASVKVSCKASGYTFTNHYMHWVRQAPGQGIEWVGVINPSGDGSSYAQTFQGRVTMTRDTSTSTVYMELRSLRSDDTAVYYCARDLFYDFWSDYYRNDQYYYMDVWGKGTLVTVSSGGGGSGGGGSGGGGSSELTQDPAVSVALGQAVRITCQGDSLRSYYASWYQQKPGQAPVLVIYGKNNRPSGIPDRFSGSSSGNTASLTITGAQAEDEADYYCNSRDSSGNHVVFGGGTKLTVLG | binds | binds
GMBC641 (scFv) scFv: EVQLVESGGGVVRPGRSLRLSCAASGFSFSSYGMHWVRQAPGKGLEWVSAISGSGGSTYYADSVKGRFTISRDNSKNTLYLQMNSLRAEDTAVYFCAKGGDRSFRAFDFWGQGTMVTVSSGGGGSGGGGSGGGGSSELTQDPAVSVALGQTVRITCQGDSLRSYYASWYQQKPGQAPVLVIYGKNNRPSGIPDRFSGSSSGNTASLTITGAQAEDEADYYCNSRDSSGNHVVFGGGTKLTVLG | binds | binds
GMBC642 (scFv) scFv: QVQLQQSGAEVKKPGASVKVSCKASGYTFTIHYMHWVRQAPGQGLEWMGIINPGDGSTSYAQNFQGRVTMTRDTSTSTVYMELSSLRSEDTAVYYCARAGRTVTSHFDYWGRGTLATVSSGGGGSGGGGSGGGGSSELTQDPAVSVALGQTVRITCQGDSLRSYYASWYQQKPGQAPVLVIYGKNNRPSGIPDRFSGSSSGNTASLTITGAQAEDEADYYCNSRDSSGNHVVFGGGTKLTVLG | binds | binds
GMBC646 (scFv) scFv: GVQLVQSGAEVKKPGASVKVSCKASGYTFTSYYIHWVRQAPGQGLEWMGIINPSGGTTSYAQKFQGRVTMTRDTSTSTVYMELSSLRSEDTAMYYCARERFLRGMDVWGRGTMVTVSSGGGGSGGGGSGGGGSDIVMTQSPSTLSASVGDRVTITCRASQGISSWLAWYQQKPGRAPKVLIYKASTLESGVPSRFSGSGSGTDFTLTISSLQPEDFATYYCQQSYSTPWTFGQGTKLEIKR | binds | binds
